Measurements as given in the supplement of paper PMC5949888.
Most values lie at the floor of the assay. Slopes are relative: functional sequences can read slightly below zero.

system: Saccharomyces cerevisiae PS128 hsf1 delta, HSF1(1-493) fusion; test: growth estimate (transactivation domain function in HSF1 fusion, heat-shock survival) (a.u. (slope of normalised read count over time)); higher = stronger growth at 37°C, i.e. more transactivation activity; details: library: random library

Substance	growth estimate
APR	< -0.25
VYVYNGASDLGEI	< -0.25
FSRSRFLRYLNATPAISAGA	< -0.25
YRVLHICSGLIFDGLILDSG	< -0.25
QWARGCIARVRSLVQGCGGH	< -0.25
ITAAMEGGGAPRLYCALETR	< -0.25
ILSCTGRESVGPFGCWCGLA	< -0.25
SGVLCVVSHFTRFGSQT	< -0.25
VKLLAIVVG	< -0.25
VTDIDCEVLMEVDSHGFKLP	< -0.25
HRQLLSARRNFESAHPGTSS	< -0.25
TTIGSGD	< -0.25
WSNRNTTMLRVIIVGSTRGN	< -0.25
ISEDLGHFMGLDQEVERYVD	-0.182
LHSSGPGHLALITYKIVFCR	< -0.25
QIL	< -0.25
RLTLCTLRYCNDLPPCADAD	< -0.25
IRN	< -0.25
TGANRTLNNIEHRSSDDRSS	< -0.25
LYHNGYARGTRLLGGV	< -0.25
IPCPFQAPASRKRGALDD	< -0.25
KLASEPEFTL	< -0.25
SFFRGRFIISGFN	< -0.25

Substance	growth estimate
NFLNKDGH	< -0.25
GDKFYQSSGVFNRG	< -0.25
RLYASVSRGHPAPERINTDN	< -0.25
VQFAWRLSRLQLLRTR	< -0.25
AGMCLNTA	< -0.25
RYVRNQPRAKSAQQCFM	< -0.25
KSTRGWL	< -0.25
AETV	< -0.25
KWGVNGN	< -0.25
IGW	0.0112
GWEESRAT	< -0.25
SMPYDRWERATR	< -0.25
SGGQDPEILLRDGICRHQAQ	< -0.25
SSCRGVRAKRDANPAMGGYR	< -0.25
VVTWEPH	-0.127
LFVGRVCPDRAVRGVSPIPR	< -0.25
RMGSICI	< -0.25
GLVTPCNFVTPNPDSGSYCT	< -0.25
RAECNSLLPHR	< -0.25
NSARVLLRSDWILNEDAVLV	-0.246
PPPKIRYQMQERSA	< -0.25
PVGPSLQPLLARRWSTS	< -0.25
WLKTQGGAGTAIRGLWLTFK	< -0.25

Substance	growth estimate
VPLSMPRER	< -0.25
LFASGLRGSRPLRPPPTLSN	< -0.25
IPELVHRGGASLNWTEPRVR	< -0.25
QAMSNWEH	< -0.25
YGASYMSVSPNGVWFGCGKT	< -0.25
YRAAWRVLVVADWMPNPAAA	< -0.25
LLGS	< -0.25
VGVRLGGSHNYSKDNVFLIP	< -0.25
VSSCDQTWDRKNKGYFLVCI	< -0.25
SSDQRDFTCLIVSVGSFAYS	< -0.25
SRTKDW	< -0.25
LTSSGVGLRAGTRSE	< -0.25
AASNLIDRRWSNDKRLLIRS	-0.243
RFSKWAVGRRLYFGCLARSP	< -0.25
RSNGGI	< -0.25
PIWGAPAWRGD	< -0.25
TLSMRYSPTTEHSGRLHRGK	< -0.25
ERTGVRAASKHLGSLLARGL	< -0.25
GKFL	< -0.25
RVRPLPAQGSSCIAPR	< -0.25
KRWFVGVFV	-0.0405
MTSSRSCPC	< -0.25
YLPFWTARGV	< -0.25

Substance	growth estimate
NYWIRVIMADHGSQDRALEH	< -0.25
DSLK	< -0.25
VFEGARSPNCRPQTTTR	< -0.25
IPRETTWGSGRL	-0.193
PNSLRHKEAPVSVTPTSHLG	< -0.25
PKSSDHIQPETHDCSGNSPV	< -0.25
VDGCLSYHLSLPLDT	< -0.25
GRICRVGKAHAQSNFGMIGR	< -0.25
SSSVRKGN	-0.243
VLPQFV	< -0.25
TDGYIQ	< -0.25
LVRLHSSLELIRPELNLANE	< -0.25
SRHITSFRGIQAGNGTLGPE	< -0.25
GVSSEGATSPRVTALFYLCH	< -0.25
LKAHPWADLCVDRAPFCHII	< -0.25
VRRYICA	< -0.25
DIRGKQPRPCNSSKTTVEAS	< -0.25
RET	< -0.25
CFKASRYSDSDI	< -0.25
CFRNILLG	< -0.25
TNRLLLEIPSSSRLYWGTRG	< -0.25
GFGRAGVAAEKGFGGTRGH	< -0.25
RTGVHVWLNYASFTVRRSLD	< -0.25

Substance	growth estimate
CLVTTGLPLQVLGWDS	< -0.25
ADTQSESPS	< -0.25
KFVGIALLCLKHNPKHRAAV	< -0.25
LLHKPIFRLQCHTIEGMVAR	< -0.25
DCNYRLYPTCGY	< -0.25
PQIASSCHSLRRGENRPLKN	< -0.25
FCAGADPGCFIGRDQHT	< -0.25
QPAYCLYRLSAT	< -0.25
ASVNTFPYGCATETDALSIV	< -0.25
RSFLQITSCLAPLRHLEEGV	< -0.25
RSVATMAMSSPTCMSGKVHP	< -0.25
LHARVGAASVGRSGEDQWTL	< -0.25
WSRCSGHPLFYGSYSRLHRS	< -0.25
CDSCPAGQVRRR	< -0.25
SARITRCRTVSERIALTNPR	< -0.25
RIMVAAYQLAVRQPKL	< -0.25
IPGVSFRSAALGLPGTTVQA	< -0.25
YGLAVCGDLQIELMVLLRIS	< -0.25
HKLRICGMRSPQAQTDSPRA	< -0.25
SCESFFGVQGGTRPTGPLCV	< -0.25
FPSFVRDMKRSGCSIPQSAA	-0.231
FIDAGSIAYGCSGQ	< -0.25
TPNRALRLRCEVRHVINVGQ	< -0.25

Substance	growth estimate
GASNSQCQSLKSVVDLEATG	< -0.25
RQPRLTSRSLGPPVQRRPRC	< -0.25
DYSGSYAETGGPLGAEIPTS	< -0.25
GSYVYFGVTISASATWCRKY	< -0.25
WASVEDSVPCHDDV	< -0.25
YRTALSRRISETLSRRLSFS	< -0.25
LLIGVFV	< -0.25
FGFVFND	2.78
IGPHRRYRLFVLASYRPCAC	< -0.25
CGRKYAGLALSNYIPLIPDG	0.0112
WFMLIT	< -0.25
RCGVQYQIIGT	< -0.25
IMECRGLARVAVCGVLFCST	-0.247
GTLMLIDYMHVTLTLRFWWR	< -0.25
FYVKFENKPLVEIRLQCRSR	< -0.25
HNDS	< -0.25
RSVCIGYTGMFVCVRHTRLL	< -0.25
LLLRI	< -0.25
FFTTVLGRPVVLP	< -0.25
PNFGEGPLESCKSKEKIMGS	< -0.25
AAVWPTP	< -0.25
DQAAGASGCEWFVVGRMIGC	< -0.25
TGYLLVHPSGY	< -0.25

Substance	growth estimate
DGPPQVAVEGAGGAM	< -0.25
MEATALNIVCTYR	< -0.25
KEETWRAASSFKLSHHRNDP	< -0.25
TSNPRDVILRLTPTDVHVEN	< -0.25
VLRCLVNKMENRVSSQYC	< -0.25
MGPAFKDLRCISLRYLR	< -0.25
SCESEGTLMGLHAQDAGPVA	< -0.25
GIS	< -0.25
RECRQLS	< -0.25
ALPGQTDVVTARLAGSGDFL	< -0.25
RLIPCKFVFSCQLSKEGGHG	< -0.25
LILPIAIQVSQSVGFWILPE	< -0.25
RWHSG	< -0.25
GYPLLWVKG	-0.187
RAALMHVRQGIYADCRGAIE	< -0.25
TESGENCLPREPSTLGALTF	< -0.25
TIVPYAFARLPRPHVRLGEF	< -0.25
LVPKNE	< -0.25

Part of the list above, with bars between the fields.
Substance | growth estimate
DIRGKQPRPCNSSKTTVEAS | < -0.25
RET | < -0.25
CFKASRYSDSDI | < -0.25
CFRNILLG | < -0.25
TNRLLLEIPSSSRLYWGTRG | < -0.25
